Earlier results as cited in US20210145768A1, “MODULATING IMMUNE RESPONSE VIA TARGETING OF OLFACTORY RECEPTOR ACTIVITY” (La Jolla Institute for Allergy and Immunology, priority 2018, published 2021).
At least one structure is not confirmed: it was looked up by name or label, or the drawing left a doubt.

Tested on: olfactory receptors
Conditions: odorant (agonist) : olfactory receptor pair; cited from earlier work

Row | Compound | Olfactory receptor agonized by the odorant (agonist)
1 | CCC1(O)C2(C)CCC(C2)C1(C)C (stereo not shown) [2-ethylfenchol] | OR11A1
2 | CCC(=O)OCCCc1ccccc1 [3-phenyl propyl propienate] | OR10A6
3 | CCOc1cc(C=O)ccc1O [Ethil Vanillin] | OR10G9
4 | CC(C=O)Cc1ccc(C(C)(C)C)cc1 (stereo not shown) [Lilial] | OR3A1
5 | CCCCCOC(C)=O [N-amyl acetate] | OR4E2
6 | CCCC(C)C1OCC(C)(CCC)CO1 (stereo not shown) [Troenan] | OR51B4
7 | CC(C)(C)c1ccc(CCC=O)cc1 [bourgeonal] | OR1D2
8 | CCCCCC1=C(C)CCC1=O [dihydrojasmone] | OR3A1
9 | CC(C=O)Cc1ccc2c(c1)OCO2 (stereo not shown) [helional] | OR3A1
10 | CCCCCCCC=O [octyl aldehyde] | OR2J3 I228V/M261I
